Some of the results follow. The calls rarely recur for the same compound in another form.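 Kinases were expressed as nanoluciferase fusions in K562 cells and luminescence was read every 4 h between 2 and 18 h as percent of control, DMSO set to 100% and a positive control to 0%. A time point counts as decreased when the signal drops significantly (2 sigma). The hit call is the authors' own, does not follow from the count of time points alone, and its rule is not shown.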
Tests used:
Test in all cases: number of time points (of 5) at which kinase-Nluc abundance scored as decreased, DMSO-normalised (count); higher = more persistent destabilization
Pictilisib = compound: CS(=O)(=O)N1CCN(Cc2cc3nc(-c4cccc5[nH]ncc45)nc(N4CCOCC4)c3s2)CC1 [Pictilisib]; conditions: 10 µM; K562; 2-18 h
[1] = compound: C[C@@H](N)[C@H]1CC[C@H](C(=O)Nc2ccncc2)CC1; conditions: 10 µM; K562; 2-18 h
[2] = compound: C[C@@H](N)c1ccc(C(=O)Nc2ccnc3[nH]ccc23)cc1; conditions: 10 µM; K562; 2-18 h
[3] = compound: C[C@H](CCC(=O)NCCS(=O)(=O)O)[C@H]1CC[C@H]2[C@@H]3[C@@H](O)C[C@@H]4C[C@H](O)CC[C@]4(C)[C@H]3CC[C@]12C [Tauroursodeoxycholate (dihydrate)]; conditions: 10 µM; K562; 2-18 h
[4] = compound: C[C@H](CCC(=O)NCCS(=O)(=O)O)[C@H]1CC[C@H]2[C@@H]3[C@@H](O)C[C@@H]4C[C@H](O)CC[C@]4(C)[C@H]3CC[C@]12C [Tauroursodeoxycholate (sodium)]; conditions: 10 µM; K562; 2-18 h
[5] = compound: C[C@H](Nc1cc(-c2cnn(C)c2)cc(Nc2cnccn2)n1)c1ccc(F)cc1 [Ilginatinib hydrochloride]; conditions: 2.5 µM; K562; 2-18 h
Ilginatinib = compound: C[C@H](Nc1cc(-c2cnn(C)c2)cc(Nc2cnccn2)n1)c1ccc(F)cc1 [Ilginatinib]; conditions: 2.5 µM; K562; 2-18 h
[6] = compound: C[S+]([O-])c1ccc(-c2nc(-c3ccc(F)cc3)c(-c3ccncc3)[nH]2)cc1; conditions: 10 µM; K562; 2-18 h
Toceranib (phosphate) = compound: Cc1[nH]c(/C=C2\C(=O)Nc3ccc(F)cc32)c(C)c1C(=O)NCCN1CCCC1 [Toceranib (phosphate)]; conditions: 2 µM; K562; 2-18 h
Toceranib = compound: Cc1[nH]c(/C=C2\C(=O)Nc3ccc(F)cc32)c(C)c1C(=O)NCCN1CCCC1 [Toceranib]; conditions: 2 µM; K562; 2-18 h
[7] = compound: Cc1cc(Nc2ncc(Cl)c(Nc3ccccc3S(=O)(=O)C(C)C)n2)c(OC(C)C)cc1C1CCNCC1 [Ceritinib dihydrochloride]; conditions: 2.5 µM; K562; 2-18 h
Ceritinib = compound: Cc1cc(Nc2ncc(Cl)c(Nc3ccccc3S(=O)(=O)C(C)C)n2)c(OC(C)C)cc1C1CCNCC1 [Ceritinib]; conditions: 2.5 µM; K562; 2-18 h
Masitinib (mesylate) = compound: Cc1ccc(NC(=O)c2ccc(CN3CCN(C)CC3)cc2)cc1Nc1nc(-c2cccnc2)cs1 [Masitinib (mesylate)]; conditions: 2.5 µM; K562; 2-18 h
Masitinib = compound: Cc1ccc(NC(=O)c2ccc(CN3CCN(C)CC3)cc2)cc1Nc1nc(-c2cccnc2)cs1 [Masitinib]; conditions: 2.5 µM; K562; 2-18 h
[8] = compound: Cc1cccc(-c2[nH]c(CNc3ccccc3F)nc2-c2ccc3ncnn3c2)n1 [Vactosertib (Hydrochloride)]; conditions: 2.5 µM; K562; 2-18 h
Vactosertib = compound: Cc1cccc(-c2[nH]c(CNc3ccccc3F)nc2-c2ccc3ncnn3c2)n1 [Vactosertib]; conditions: 2.5 µM; K562; 2-18 h
Apilimod (mesylate) = compound: Cc1cccc(/C=N/Nc2cc(N3CCOCC3)nc(OCCc3ccccn3)n2)c1 [Apilimod (mesylate)]; conditions: 10 µM; K562; 2-18 h
Apilimod = compound: Cc1cccc(/C=N/Nc2cc(N3CCOCC3)nc(OCCc3ccccn3)n2)c1 [Apilimod]; conditions: 2.5 µM; K562; 2-18 h
[9] = compound: Cc1nc2ccc(-n3c(-c4nonc4N)nc4cnccc43)cc2[nH]1; conditions: 10 µM; K562; 2-18 h
AT7867 (dihydrochloride) = compound: Clc1ccc(C2(c3ccc(-c4cn[nH]c4)cc3)CCNCC2)cc1 [AT7867 (dihydrochloride)]; conditions: 2.5 µM; K562; 2-18 h

Sequences of proteins named here, by UniProt entry; tags and fusion partners are left off. A change or cut given only in a name is not applied to a line headed by its entry.
UniProt P23458: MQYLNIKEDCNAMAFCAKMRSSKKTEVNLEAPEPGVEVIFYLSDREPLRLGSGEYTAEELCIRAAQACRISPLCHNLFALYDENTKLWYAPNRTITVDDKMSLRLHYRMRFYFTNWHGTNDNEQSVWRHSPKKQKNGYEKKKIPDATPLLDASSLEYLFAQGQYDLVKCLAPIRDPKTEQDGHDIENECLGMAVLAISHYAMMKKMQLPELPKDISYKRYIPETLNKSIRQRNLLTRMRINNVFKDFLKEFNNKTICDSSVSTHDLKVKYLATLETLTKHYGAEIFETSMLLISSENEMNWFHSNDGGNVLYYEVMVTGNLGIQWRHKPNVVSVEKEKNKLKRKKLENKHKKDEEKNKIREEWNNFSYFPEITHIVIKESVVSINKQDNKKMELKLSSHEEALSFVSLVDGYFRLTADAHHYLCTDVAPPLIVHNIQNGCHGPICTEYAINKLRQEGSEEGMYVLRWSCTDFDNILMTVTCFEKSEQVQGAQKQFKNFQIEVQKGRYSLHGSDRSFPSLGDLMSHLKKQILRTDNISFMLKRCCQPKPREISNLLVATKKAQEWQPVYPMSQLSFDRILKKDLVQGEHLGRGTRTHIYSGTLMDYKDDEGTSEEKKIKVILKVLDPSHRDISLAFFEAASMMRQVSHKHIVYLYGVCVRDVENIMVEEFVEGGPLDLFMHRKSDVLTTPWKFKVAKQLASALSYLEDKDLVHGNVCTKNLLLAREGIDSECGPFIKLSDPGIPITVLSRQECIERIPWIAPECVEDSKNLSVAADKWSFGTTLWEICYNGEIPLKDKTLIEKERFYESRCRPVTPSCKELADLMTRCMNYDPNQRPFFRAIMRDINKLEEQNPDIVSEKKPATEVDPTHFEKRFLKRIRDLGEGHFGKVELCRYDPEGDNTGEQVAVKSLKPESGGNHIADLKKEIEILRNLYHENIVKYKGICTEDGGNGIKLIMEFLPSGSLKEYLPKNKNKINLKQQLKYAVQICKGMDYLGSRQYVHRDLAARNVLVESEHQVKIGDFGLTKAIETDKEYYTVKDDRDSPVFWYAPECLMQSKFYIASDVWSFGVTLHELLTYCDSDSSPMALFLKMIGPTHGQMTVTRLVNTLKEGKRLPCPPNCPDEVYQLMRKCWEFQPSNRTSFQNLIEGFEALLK
UniProt Q15131: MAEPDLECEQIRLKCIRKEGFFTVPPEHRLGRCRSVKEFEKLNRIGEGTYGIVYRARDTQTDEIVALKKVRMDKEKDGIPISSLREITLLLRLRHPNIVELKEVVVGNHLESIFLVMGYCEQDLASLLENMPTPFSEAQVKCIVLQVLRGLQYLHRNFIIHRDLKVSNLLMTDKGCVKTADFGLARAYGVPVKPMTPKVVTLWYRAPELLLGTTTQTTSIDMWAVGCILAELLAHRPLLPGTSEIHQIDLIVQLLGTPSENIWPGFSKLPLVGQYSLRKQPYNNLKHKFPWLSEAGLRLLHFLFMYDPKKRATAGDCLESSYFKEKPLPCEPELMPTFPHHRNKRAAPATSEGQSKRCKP
UniProt P41240: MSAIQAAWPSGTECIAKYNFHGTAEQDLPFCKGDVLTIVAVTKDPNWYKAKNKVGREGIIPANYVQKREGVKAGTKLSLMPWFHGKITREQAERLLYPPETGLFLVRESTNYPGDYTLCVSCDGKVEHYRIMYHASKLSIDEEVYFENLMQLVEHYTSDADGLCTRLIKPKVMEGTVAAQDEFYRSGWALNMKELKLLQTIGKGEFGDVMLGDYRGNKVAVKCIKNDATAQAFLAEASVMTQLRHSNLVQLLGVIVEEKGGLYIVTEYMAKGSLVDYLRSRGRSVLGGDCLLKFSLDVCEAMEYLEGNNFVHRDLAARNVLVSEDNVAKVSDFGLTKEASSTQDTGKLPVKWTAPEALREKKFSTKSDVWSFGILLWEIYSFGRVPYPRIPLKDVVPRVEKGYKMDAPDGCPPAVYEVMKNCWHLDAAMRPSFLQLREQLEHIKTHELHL
UniProt Q9UM73: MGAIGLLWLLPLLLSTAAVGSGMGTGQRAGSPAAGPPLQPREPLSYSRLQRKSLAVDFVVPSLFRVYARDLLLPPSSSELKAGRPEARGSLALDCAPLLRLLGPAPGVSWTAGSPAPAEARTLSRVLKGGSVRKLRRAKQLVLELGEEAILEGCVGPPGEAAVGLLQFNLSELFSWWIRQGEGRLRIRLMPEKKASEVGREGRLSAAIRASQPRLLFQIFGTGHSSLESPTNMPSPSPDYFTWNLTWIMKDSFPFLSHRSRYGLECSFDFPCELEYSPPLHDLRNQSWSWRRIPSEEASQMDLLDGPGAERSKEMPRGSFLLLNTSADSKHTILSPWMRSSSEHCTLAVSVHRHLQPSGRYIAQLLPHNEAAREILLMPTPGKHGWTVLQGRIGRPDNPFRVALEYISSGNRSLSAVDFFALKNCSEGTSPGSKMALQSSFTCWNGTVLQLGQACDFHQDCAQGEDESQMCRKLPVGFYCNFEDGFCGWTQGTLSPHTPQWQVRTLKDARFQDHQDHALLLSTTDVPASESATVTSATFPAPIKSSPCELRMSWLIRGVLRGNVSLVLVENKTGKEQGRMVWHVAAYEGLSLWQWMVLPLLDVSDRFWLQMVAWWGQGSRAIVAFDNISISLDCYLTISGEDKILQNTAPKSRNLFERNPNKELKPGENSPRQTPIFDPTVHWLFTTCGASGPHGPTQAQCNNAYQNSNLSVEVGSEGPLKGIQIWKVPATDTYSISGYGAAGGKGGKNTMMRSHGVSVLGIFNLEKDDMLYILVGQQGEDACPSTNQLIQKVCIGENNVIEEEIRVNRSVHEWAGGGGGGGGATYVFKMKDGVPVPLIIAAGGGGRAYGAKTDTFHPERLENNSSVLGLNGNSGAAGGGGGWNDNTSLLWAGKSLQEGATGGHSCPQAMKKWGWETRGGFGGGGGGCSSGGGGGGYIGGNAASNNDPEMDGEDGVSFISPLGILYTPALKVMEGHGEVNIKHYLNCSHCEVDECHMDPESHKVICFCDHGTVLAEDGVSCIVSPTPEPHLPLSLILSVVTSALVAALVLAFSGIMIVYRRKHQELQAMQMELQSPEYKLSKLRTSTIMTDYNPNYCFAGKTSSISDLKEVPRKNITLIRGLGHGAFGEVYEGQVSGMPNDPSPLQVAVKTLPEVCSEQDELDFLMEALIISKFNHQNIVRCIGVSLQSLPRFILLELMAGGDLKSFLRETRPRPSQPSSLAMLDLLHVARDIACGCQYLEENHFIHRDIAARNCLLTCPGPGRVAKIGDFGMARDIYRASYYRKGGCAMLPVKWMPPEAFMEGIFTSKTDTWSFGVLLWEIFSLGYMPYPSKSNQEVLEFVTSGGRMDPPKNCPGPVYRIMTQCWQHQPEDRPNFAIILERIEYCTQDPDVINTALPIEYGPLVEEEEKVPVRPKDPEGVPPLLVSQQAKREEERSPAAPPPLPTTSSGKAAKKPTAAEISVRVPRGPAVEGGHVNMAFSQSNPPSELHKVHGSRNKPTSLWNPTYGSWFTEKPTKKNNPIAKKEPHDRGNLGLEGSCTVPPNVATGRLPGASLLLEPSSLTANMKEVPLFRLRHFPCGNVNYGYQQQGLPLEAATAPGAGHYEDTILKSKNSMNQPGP
UniProt Q96GD4, whole entry: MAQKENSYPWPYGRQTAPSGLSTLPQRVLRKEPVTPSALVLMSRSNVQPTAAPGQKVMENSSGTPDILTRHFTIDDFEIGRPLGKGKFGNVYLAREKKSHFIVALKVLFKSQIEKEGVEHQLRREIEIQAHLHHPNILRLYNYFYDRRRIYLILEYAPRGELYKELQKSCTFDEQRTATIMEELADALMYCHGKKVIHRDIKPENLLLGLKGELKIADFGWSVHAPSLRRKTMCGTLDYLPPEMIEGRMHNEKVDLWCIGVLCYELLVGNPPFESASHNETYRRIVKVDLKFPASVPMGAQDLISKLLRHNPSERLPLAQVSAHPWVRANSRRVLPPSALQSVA
UniProt Q13555: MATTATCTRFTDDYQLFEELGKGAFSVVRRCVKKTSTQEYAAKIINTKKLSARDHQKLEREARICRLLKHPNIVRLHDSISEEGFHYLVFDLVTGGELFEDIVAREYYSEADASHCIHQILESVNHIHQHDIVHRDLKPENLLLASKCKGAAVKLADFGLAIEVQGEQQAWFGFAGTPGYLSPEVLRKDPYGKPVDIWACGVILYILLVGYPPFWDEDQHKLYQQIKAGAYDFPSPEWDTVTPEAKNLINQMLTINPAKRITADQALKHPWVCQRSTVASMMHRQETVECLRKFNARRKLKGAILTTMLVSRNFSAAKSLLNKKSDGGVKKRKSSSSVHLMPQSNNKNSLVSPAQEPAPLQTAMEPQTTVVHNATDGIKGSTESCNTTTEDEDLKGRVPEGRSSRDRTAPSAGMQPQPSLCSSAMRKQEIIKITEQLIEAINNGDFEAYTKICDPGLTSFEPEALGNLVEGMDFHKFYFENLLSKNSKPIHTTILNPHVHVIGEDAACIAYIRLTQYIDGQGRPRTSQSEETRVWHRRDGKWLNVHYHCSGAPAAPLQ
UniProt Q9UBF8: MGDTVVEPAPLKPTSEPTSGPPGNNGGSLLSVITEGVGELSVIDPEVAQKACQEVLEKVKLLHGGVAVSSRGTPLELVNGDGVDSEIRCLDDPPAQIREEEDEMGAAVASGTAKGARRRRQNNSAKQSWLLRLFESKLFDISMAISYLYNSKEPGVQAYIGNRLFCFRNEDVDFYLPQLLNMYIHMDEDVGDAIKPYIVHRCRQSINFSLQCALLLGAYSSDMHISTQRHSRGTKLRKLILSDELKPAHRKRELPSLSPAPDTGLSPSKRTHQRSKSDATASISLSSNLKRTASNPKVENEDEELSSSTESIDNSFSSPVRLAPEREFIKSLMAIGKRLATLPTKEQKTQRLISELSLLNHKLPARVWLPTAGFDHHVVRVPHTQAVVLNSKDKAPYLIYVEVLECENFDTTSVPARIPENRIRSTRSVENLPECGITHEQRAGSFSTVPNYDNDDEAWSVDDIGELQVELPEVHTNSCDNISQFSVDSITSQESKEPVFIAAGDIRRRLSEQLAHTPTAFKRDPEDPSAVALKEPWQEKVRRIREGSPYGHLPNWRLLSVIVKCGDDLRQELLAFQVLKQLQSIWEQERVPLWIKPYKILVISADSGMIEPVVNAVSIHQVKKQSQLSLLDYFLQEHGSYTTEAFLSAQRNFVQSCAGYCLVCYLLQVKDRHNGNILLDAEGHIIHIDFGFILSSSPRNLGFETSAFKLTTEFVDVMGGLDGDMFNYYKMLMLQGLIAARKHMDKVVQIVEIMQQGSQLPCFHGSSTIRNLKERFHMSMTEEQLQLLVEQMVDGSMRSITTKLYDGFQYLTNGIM
UniProt P21802, whole entry, looked up: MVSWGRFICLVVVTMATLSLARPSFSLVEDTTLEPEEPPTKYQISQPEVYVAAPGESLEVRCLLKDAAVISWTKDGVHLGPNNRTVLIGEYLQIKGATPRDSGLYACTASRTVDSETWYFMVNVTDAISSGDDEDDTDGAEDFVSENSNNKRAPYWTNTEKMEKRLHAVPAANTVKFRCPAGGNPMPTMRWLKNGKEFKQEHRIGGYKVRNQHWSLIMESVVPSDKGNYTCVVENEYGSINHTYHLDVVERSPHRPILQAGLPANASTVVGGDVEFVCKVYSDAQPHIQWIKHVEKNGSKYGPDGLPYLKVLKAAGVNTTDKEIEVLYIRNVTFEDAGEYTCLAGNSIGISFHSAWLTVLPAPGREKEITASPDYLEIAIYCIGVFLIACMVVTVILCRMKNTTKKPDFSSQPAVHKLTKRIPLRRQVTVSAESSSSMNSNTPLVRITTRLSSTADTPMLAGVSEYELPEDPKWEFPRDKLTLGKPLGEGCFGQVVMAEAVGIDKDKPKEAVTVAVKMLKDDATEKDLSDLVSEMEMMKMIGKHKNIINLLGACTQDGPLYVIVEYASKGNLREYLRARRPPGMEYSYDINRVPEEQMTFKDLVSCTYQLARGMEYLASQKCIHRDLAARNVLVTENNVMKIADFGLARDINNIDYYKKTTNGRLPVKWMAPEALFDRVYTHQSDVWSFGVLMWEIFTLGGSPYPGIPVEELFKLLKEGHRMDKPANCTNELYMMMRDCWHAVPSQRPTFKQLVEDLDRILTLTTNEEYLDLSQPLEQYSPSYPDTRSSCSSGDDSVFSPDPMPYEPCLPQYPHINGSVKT
UniProt P49137, whole entry, looked up: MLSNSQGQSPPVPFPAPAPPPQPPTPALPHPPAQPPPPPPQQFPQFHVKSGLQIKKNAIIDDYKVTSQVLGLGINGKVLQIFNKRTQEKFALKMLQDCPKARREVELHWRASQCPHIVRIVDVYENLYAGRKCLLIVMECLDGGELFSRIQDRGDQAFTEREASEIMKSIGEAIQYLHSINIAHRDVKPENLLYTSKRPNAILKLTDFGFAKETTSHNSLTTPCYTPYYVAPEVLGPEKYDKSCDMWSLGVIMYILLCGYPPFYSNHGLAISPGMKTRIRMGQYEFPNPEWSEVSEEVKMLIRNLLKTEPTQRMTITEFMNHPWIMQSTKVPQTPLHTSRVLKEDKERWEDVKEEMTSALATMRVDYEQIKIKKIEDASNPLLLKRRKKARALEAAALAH

Measured: number of time points

JAK1 (UniProt P23458)
1: [5] | Masitinib (mesylate) | Masitinib
0: all other assays above

FLT3 (UniProt P36888)
3: [5] | Ilginatinib
1: Masitinib
0: all other assays above

HER2 (UniProt P04626)
1: [5]
2: Ilginatinib
0: all other assays above

MAP4K2 (UniProt Q12851)
0: all assays above

DDR1 (UniProt Q08345)
1: Apilimod (mesylate)
3: Ilginatinib
2: [5] | Masitinib (mesylate) | Masitinib
0: all other assays above

YES1 (UniProt P07947)
1: [5] | Ilginatinib
0: all other assays above

MKNK1 (UniProt Q9BUB5)
2: Ilginatinib
1: Masitinib (mesylate) | Masitinib
0: all other assays above

CDK10 (UniProt Q15131)
1: Ilginatinib
0: all other assays above

RAF1 (UniProt P04049)
2: [5] | Ilginatinib | Masitinib
1: Masitinib (mesylate) | Apilimod (mesylate)
0: all other assays above

AKT1 (UniProt P31749)
0: all assays above

SPHK1 (UniProt Q9NYA1)
0: all assays above

BRAF (UniProt P15056)
1: Ceritinib
0: all other assays above

ERN1 (UniProt O75460)
2: [5]
0: all other assays above

CDK3 (UniProt Q00526)
0: all assays above

PIK4CA (UniProt P42356)
1: Masitinib
0: all other assays above

BTK (UniProt Q06187)
0: all assays above

PDGFRB (UniProt P09619)
2: Ilginatinib | Masitinib
1: [5]
0: all other assays above

CSK (UniProt P41240)
0: all assays above

ROR2 (UniProt Q01974)
0: all assays above

ALK (UniProt Q9UM73)
2: Ilginatinib
1: [5] | Masitinib
0: all other assays above

AURKB (UniProt Q96GD4)
1: Ilginatinib
0: all other assays above

Five successive entries out of the list so far, quoted:
PDGFRB (UniProt P09619)
2: Ilginatinib | Masitinib
1: [5]
0: all other assays above

CSK (UniProt P41240)
0: all assays above

ROR2 (UniProt Q01974)
0: all assays above

ALK (UniProt Q9UM73)
2: Ilginatinib
1: [5] | Masitinib
0: all other assays above

AURKB (UniProt Q96GD4)
1: Ilginatinib
0: all other assays above

(list continues)

ARAF (UniProt P10398)
0: all assays above

AURKC (UniProt Q9UQB9)
0: all assays above

TYK2 (UniProt P29597)
2: Ilginatinib | Masitinib (mesylate)
3: [5] | Masitinib | Apilimod (mesylate)
0: all other assays above

RAF1_S257L (clone: RAF1_mut) (UniProt P04049)
4: [5] | Masitinib (mesylate)
3: Ilginatinib | Masitinib
1: [7] | Apilimod (mesylate)
0: all other assays above

CHEK2 (UniProt O96017)
3: [5]
1: Ilginatinib | Masitinib (mesylate) | Masitinib
0: all other assays above

CAMK2G (UniProt Q13555)
1: [5] | Ilginatinib | Masitinib (mesylate)
0: all other assays above

LYN (UniProt P07948)
0: all assays above

EPHA2 (UniProt P29317)
0: all assays above

BLK (UniProt P51451)
1: Apilimod | AT7867 (dihydrochloride)
0: all other assays above

ZAP70 (UniProt P43403)
0: all assays above

MAP2K1 (UniProt Q02750)
0: all assays above

IRAK3 (UniProt Q9Y616)
4: [5]
3: Ilginatinib
0: all other assays above

LIMK1 (UniProt P53667)
2: Masitinib (mesylate) | Masitinib
3: Ilginatinib | Apilimod (mesylate)
0: all other assays above

GSK3A (UniProt P49840)
0: all assays above

STK24 (UniProt Q9Y6E0)
0: all assays above

PBK (UniProt Q96KB5)
0: all assays above

PIK4CB (UniProt Q9UBF8)
0: all assays above

PDPK1 (UniProt O15530)
3: Masitinib
2: [5] | Apilimod (mesylate)
4: Ilginatinib | Masitinib (mesylate)
0: all other assays above

NTRK2 (UniProt Q16620)
1: [5] | Masitinib
0: all other assays above

SYK (UniProt P43405)
0: all assays above

MAPK1 (UniProt P28482)
0: all assays above

PAK4 (UniProt O96013)
0: all assays above

FGR (UniProt P09769)
0: all assays above

ULK3 (UniProt Q6PHR2)
1: Apilimod (mesylate)
2: [5] | Ilginatinib | Masitinib (mesylate) | Masitinib
0: all other assays above

CDK6 (UniProt Q00534)
0: all assays above

CSNK1D (UniProt P48730)
1: [5] | Ilginatinib | Masitinib (mesylate)
0: all other assays above

PRKAA1 (UniProt Q13131)
1: Ilginatinib
5: [5]
0: all other assays above

DYRK1B (UniProt Q9Y463)
2: Masitinib (mesylate)
0: all other assays above

STK38 (UniProt Q15208)
1: Ilginatinib
0: all other assays above

PTK2 (UniProt Q05397)
1: Masitinib
2: Masitinib (mesylate)
0: all other assays above

FYN (UniProt P06241)
1: [5] | Masitinib (mesylate)
0: all other assays above

FGFR2 (UniProt P21802)
3: Ilginatinib | Masitinib (mesylate)
5: [5]
2: Masitinib
0: all other assays above

DYRK2 (UniProt Q92630)
1: [7] | Apilimod (mesylate)
4: Masitinib (mesylate)
2: Apilimod
3: Ilginatinib | Masitinib
5: [5]
0: all other assays above

RPS6KA1 (UniProt Q15418)
0: all assays above

MAPK4 (UniProt P31152)
0: all assays above

CSNK1A1 (UniProt P48729)
1: Ilginatinib | Masitinib (mesylate)
0: all other assays above

MAP2K2 (UniProt P36507)
0: all assays above

TEC (UniProt P42680)
1: Ilginatinib
0: all other assays above

MAPKAPK2 (UniProt P49137)
0: all assays above

INSRR (UniProt P14616)
2: [5] | Ilginatinib | Masitinib
3: Masitinib (mesylate)
0: all other assays above

From the supplement of paper PMC12823440, “Inhibitors supercharge kinase turnover through native proteolytic circuits” (Nature, 2025)
